The record followed here is paper doi:10.1101/2025.04.09.648038.

The chains behind the UniProt entries cited, without tags or fusion partners. Where a name states a change or a piece, a line headed by the entry shows the natural chain unless it says otherwise.
UniProt O74525: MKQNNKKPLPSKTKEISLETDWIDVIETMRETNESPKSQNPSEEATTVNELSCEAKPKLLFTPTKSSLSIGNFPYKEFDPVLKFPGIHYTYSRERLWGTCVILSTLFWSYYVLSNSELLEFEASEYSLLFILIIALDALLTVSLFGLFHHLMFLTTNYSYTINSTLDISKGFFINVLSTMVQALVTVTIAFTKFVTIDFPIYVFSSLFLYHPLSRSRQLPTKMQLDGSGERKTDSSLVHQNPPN

In this assay the target is T1, TurboID-mCherry-Atg8 (S. pombe) (UniProt O94272).
T1 sequence: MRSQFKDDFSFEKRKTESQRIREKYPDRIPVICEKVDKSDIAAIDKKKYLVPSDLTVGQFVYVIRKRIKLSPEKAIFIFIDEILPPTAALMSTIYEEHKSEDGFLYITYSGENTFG
Briefly: proximity labelling.

These are yes or no findings as the source states them, for the method shown. In cells and extracts the contact can be indirect. Here binding means that the protein was enriched with, or labelled near, the bait; the list need not be complete.

“Npr1 (SPCC70.04c), endogenous (from UniProt O74525)”: the binding result is on record as “binds”.
